# Measurements from PubChem BioAssay AID493014 (National Center for Advancing Translational Sciences (NCATS), 2011).
# The whole screen tested about 340,000 compounds, of which about 170 (0.05%) were called active. The shares of active, inactive and inconclusive entries below differ from those in the screen. Calls come from the whole dose curve; as a rule, active = well fitted inhibition curve with a large enough effect in the signal ratio, with a control signal flat (not every such curve was filed as active); inconclusive = small, poorly fitted or top-dose-only effect, or effect the other way, or a change in a side signal; inactive = flat fitted curve, though single readings scatter; the % refers to the signal ratio. Where the call is inconclusive, the potency comes from a doubtful curve fit.
# Assay: qHTS Assay to Find Inhibitors of Chronic Active B-Cell Receptor Signaling;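 for activity change, negative = inhibition: plate controls were basal doxycycline-induced cells for no effect and cells given 10 µM MG132 for full effect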
# Conditions: ABC-DLBCL IkBa-CBG/CBR reporter, luminescence ratio (green luciferase fused to IkBa over red control in TMD8 lymphoma cells), 4 h; activity change, negative = inhibition: at 46.1 µM (top of the series)
# Method in brief: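 Cell line TMD8 (human ABC DLBCL), stably expressing tet-inducible CBG68-IkBa fusion and CBR; IMDM/0.5% FBS; cpd up to 46 uM; dox induction, 4 h, 37C/5% CO2; dual luminescence; green/red ratio; MG132 control.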
# Potency is the fitted concentration of half-maximal effect.
Structure (SMILES),Potency,"activity change, negative = inhibition"
Cc1ccc(Nc2nnc(SC3CCOC3=O)s2)cc1 (centres undefined),"inconclusive: 23.1 µM [falling, partial curve]",–
Cc1ccc(NC(=O)CCNS(=O)(=O)c2cccc3nonc23)cc1Cl,–,inactive: 0.0097%
CC1=C(/C=C/C(C)=N\NC(=O)c2ccncc2)C(C)(C)CCC1,–,inconclusive: 1.94%
CCOC(=O)c1cccc(Nc2ncnc3ccc(C)cc23)c1,"inconclusive: 12.6 µM [falling, single point]",–
Cc1cccc(-c2nnc(SCC(=O)NCc3ccc4c(c3)OCO4)n2C)c1,–,inactive: -2.16%
O=C(CCC1CCCC1)Nc1ccc([N+](=O)[O-])cn1,–,inconclusive: 11.2%
Cn1c(SCc2nc3ccccc3c(=O)[nH]2)nc2ccccc21,–,inconclusive: -1.03%
CC(=O)N(c1ccccc1)C(C)c1nc(C#N)c(C#N)nc1C (centres undefined),–,inconclusive: -17.3%
Cc1cc(C)cc(NC(=O)Cc2ccc(-n3cccc3)cc2)c1,–,inconclusive: 5.49%
COC(=O)c1sccc1NC(=O)c1csc(C)c1,–,inactive: -1.92%
C=CCNC(=O)COc1ccc(S(=O)(=O)Nc2ccc(OCC)cc2)cc1,–,inconclusive: 3.73%
COc1ccccc1OCCn1c(=O)n(C)c2ccccc21,–,inconclusive: -1.16%
Cc1ccc2c(c1)C(=O)C(=O)N2CCCOc1ccccc1,–,inconclusive: 0.994%
COC(=O)c1ccc(C(=O)OC)c(NC(=S)N2CCN(C)CC2)c1,–,inactive: 2.16%
COc1ccccc1CC(=O)NCc1ccc2c(c1)OCO2,–,inactive: -0.936%
O=C(CSc1n[nH]c(=O)[nH]c1=O)N/N=C/C=C/c1ccccc1,–,inconclusive: 0.739%
CN(Cc1c(C(=O)N/N=C/c2c(F)cccc2Cl)nnn1-c1nonc1N)c1ccccc1,–,inconclusive: -8.18%
COc1ccc(NC(=S)N2CCNC(=O)C2CC(=O)Nc2cccc(Cl)c2C)cc1 (centres undefined),–,inconclusive: -0.236%
Cc1cc(SCC(=O)NC2CC2)nc2ccccc12,–,inconclusive: -7.52%
O=C(OCn1nnc2ccccc2c1=O)c1cc2ccccc2o1,"inconclusive: 11.2 µM [falling, partial curve]",–
CCN1C(c2ccccc2)=C(c2ccccc2)S/C1=C/C=C1\SC(=S)N(C)C1=O,"inconclusive: 0.231 µM [rising, full curve, poor fit]",–
CCCn1c(=O)c2[nH]c(-c3ccc(S(=O)(=O)O)cc3)nc2n(CCC)c1=O,–,inconclusive: 13.3%
CCOC(=O)Nc1ccc2c(CN(C)Cc3ccc(F)cc3)cc(=O)oc2c1,"inconclusive: 12.6 µM [falling, single point]",–
O=[N+]([O-])c1cccnc1N1CCC(c2cc(-c3cccc(C(F)(F)F)c3)n[nH]2)CC1,–,inactive: 21.1%
COc1ccc(NC(=O)CSc2nc(N)cc(N)n2)cc1S(=O)(=O)N1CCCCC1,–,inactive: -3.94%
CCc1ccc2[nH]c(C(=O)Nc3ccc(Br)c(C)n3)cc2c1,–,inconclusive: 2.07%
Cc1ccc(Nc2nc(N)nc(CN3CCN(c4ccccc4)CC3)n2)cc1Cl,–,inactive: 0.2%

Structure (SMILES),Potency,"activity change, negative = inhibition"
O=C1CC(NS(=O)(=O)c2cc(F)ccc2F)CN1c1ccc2c(c1)OCCO2 (centres undefined),–,inactive: -12.1%
O=C(Nc1ccccc1F)c1ccc2c(c1)OCO2,"inconclusive: 14.1 µM [falling, partial curve]",–
COc1ccc(S(=O)(=O)N2CCCCCC2)cc1NC(=O)Cc1n[nH]c(=O)c2ccccc12,"inconclusive: 13 µM [falling, partial curve, poor fit]",–
CNC(=O)COC(=O)c1cc2c(C)nn(-c3ccc(F)cc3)c2s1,–,inconclusive: -31.1%
Cc1cc(NS(=O)(=O)c2ccc(NC(=O)COc3ccc(Cl)cc3)cc2)no1,–,inconclusive: 12.1%
CCC(COC)NC(=O)CCc1nnc(Cc2cccc(C(F)(F)F)c2)o1 (centres undefined),–,inconclusive: 2.23%
CC(C)Oc1ccccc1C1Nc2ccccc2C(=O)N1c1ccc2c(c1)OCCO2 (centres undefined),"inconclusive: 29.1 µM [falling, single point]",–
O=C(O)c1ccc2c(c1)S(=O)(=O)N=C1CCCCCN12,–,inactive: 1.29%
CCN(c1ccccc1)S(=O)(=O)c1ccc(Oc2ccc(-n3ccnc3)cc2)nc1,–,inconclusive: -0.699%
CCC(C)NC(=O)c1cc(-c2ccccc2O)on1 (centres undefined),–,inconclusive: 320%
CN1C(=O)/C(=C/C=C2\SCCN2C)OC1=S,–,inconclusive: 6.4%
O=C(CSc1n[nH]c(-c2ccccc2)n1)Nc1ncccn1,"inconclusive: 20 µM [falling, single point]",–
N#Cc1nc(-c2cccs2)oc1N1CCN(c2ccccc2)CC1,–,inconclusive: 6.92%
N=C(N)N=Nc1c(O)[nH]c2ccc(Br)cc12,–,inconclusive: -2.67%
CCc1ccc(-c2cc(C(=O)NCc3ccccn3)c3ccccc3n2)cc1,–,inconclusive: 13%
CCCCCSc1nc2c(c(=O)[nH]c(=O)n2C)n1C,–,inconclusive: 0.0898%
O=C1CNC(=S)N1CCc1ccccc1Cl,–,inconclusive: 9.73%
Cc1cccc(OCC(O)Cn2c(=N)n(CCN3CCCCC3)c3ccccc32)c1 (centres undefined),"inconclusive: 20 µM [falling, partial curve, poor fit]",–
COC(=O)CCC(NC(=O)c1cc(-c2ccc3c(c2)OCCO3)oc1C)C(=O)OC (centres undefined),–,inconclusive: -1.26%
COc1ccc(/C=N/NC(=O)c2[nH]c3ccc(Br)cc3c2-c2ccccc2)c(C(=O)O)c1OC,"inconclusive: 5.62 µM [falling, single point]",–
CCCCCCCCCC[N+](C)(C)CC/C=C1/c2ccccc2Sc2ccc(Cl)cc21,–,inactive: 0.182%
Cc1[nH]nc2c1C(c1ccc(-c3ccccc3C#N)o1)C(C#N)=C(N)O2 (centres undefined),"inconclusive: 25.1 µM [falling, single point]",–
CCCc1noc(-c2cccc([N+](=O)[O-])c2)n1,–,inactive: 11.2%
CCc1cc2c(COC(=O)c3c(C)noc3C)cc(=O)oc2cc1O,–,inactive: 10.8%
COc1ccc(F)cc1S(=O)(=O)NCc1cc(=O)n(C)c(=O)n1C,–,inactive: 11.4%
Cc1ccc(C)c(OCC(O)CN2C(C)CCCC2C)c1 (centres undefined),–,inactive: 2.53%
COc1ccc(Oc2coc3c(CN(C)C)c(O)ccc3c2=O)cc1,–,inconclusive: 10.5%

# Full records as entered above.
# CCN(c1ccccc1)S(=O)(=O)c1ccc(Oc2ccc(-n3ccnc3)cc2)nc1 reads activity change, negative = inhibition: inconclusive: -0.699%
# CCc1ccc(-c2cc(C(=O)NCc3ccccn3)c3ccccc3n2)cc1 reads activity change, negative = inhibition: inconclusive: 13%
